Measured values reported in patent US11104926B1, “Pro-fluorophore compounds and use thereof” (Vanderbilt University, priority 2018, dated 2021).
For at least one compound, name, drawing or mass did not settle the structure.

What follows are compounds tested on porcine liver esterase (PLE) (assay: In vitro activation of rhodamine-amide pro-fluorophores by PLE (kinetic fluorescence plate assay)). Details: 30 nM PLE; rates from Rhodamine 110 present at 120 seconds; mean (SEM) of 4 replicates.
Assay type: biochemical
Procedure: To investigate the ability of PLE to activate various rhodamine-amide pro-fluorophores, the compounds were dissolved in DMSO to a concentration of 100 mM and serially diluted in DMSO in 10, 3-fold steps. The compounds were then added to the well of a low volume, cyclic olefin copolymer 384-well plate (Labcyte). Forty nL/well of pro-fluorophore solution were transferred to black-walled, clear-bottom, polystyrene 384-well plates (Greiner) using an Echo plate reformatter (Labcyte). Following compound transfer, […] of phosphate-buffered saline (PBS) was added to each well and thoroughly mixed. PLE (Sigma, 46058) dissolved in PBS at a concentration of 60 nM and 40 μL of this solution was added to the wells of a polypropylene 384-well plate (Greiner). Pro-fluorophore-containing and PLE-containing plates were placed in a Panoptic kinetic imaging plate reader (WaveFront Biosciences). Images were acquired at 1 Hz (excitation 480±20 nm and 540±30 nm) for 30 seconds, then 20 μL/well of the PLE solutions were added to the pro-fluorophore-containing plates and imaging continued for an additional 15 minutes. In addition to the pro-fluorophore-containing plates, a plate containing PBS only was imaged as was a plate containing a concentration series of Rhodamine 110.

Structure (SMILES)	kcat/KM
CC(=O)Nc1ccc2c(c1)Oc1cc(NC(C)=O)ccc1C21OC(=O)c2ccccc21 [Compound 1b, N,N′-bis-acetyl rhodamine]	3.22 (±0.28) × 10^2 M^−1 S^−1
CCC(=O)Nc1ccc2c(c1)Oc1cc(NC(=O)CC)ccc1C21OC(=O)c2ccccc21 [Compound 1c, N,N′-bis-propionyl rhodamine]	4.42 (±0.51) × 10^3 M^−1 S^−1
CC(C)C(=O)Nc1ccc2c(c1)Oc1cc(NC(=O)C(C)C)ccc1C21OC(=O)c2ccccc21 [Compound 1d, N,N′-bis-isobutyl rhodamine]	5.11 (±0.67) × 10^2 M^−1 S^−1
CC(C)(C)C(=O)Nc1ccc2c(c1)Oc1cc(NC(=O)C(C)(C)C)ccc1C21OC(=O)c2ccccc21 [Compound 1e, N,N′-bis-pivaloyl rhodamine]	1.33 (±0.53) × 10^3 M^−1 S^−1
O=C(Nc1ccc2c(c1)Oc1cc(NC(=O)c3ccccc3)ccc1C21OC(=O)c2ccccc21)c1ccccc1 [Compound 1f, N,N′-bis-benzoyl rhodamine]	3.81 (±0.18) × 10^1 M^−1 S^−1

Same assay, conditions: Table 1; PLE activation

Structure (SMILES)	kcat/KM
O=C(Nc1ccc2c(c1)Oc1cc(NC(=O)c3ccccc3)ccc1C21OC(=O)c2ccccc21)c1ccccc1 [Compound 1f, N,N′-bis-benzoyl rhodamine]	3.81×10^1 M^−1 S^−1
